Data as given in PubChem BioAssay AID1159584 (Peter MacCallum Cancer Centre, 2016).
Purpose: 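Knock-downs that harm CDH1-null cells more than parental MCF10A cells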 (primary screen). Cell system: human MCF10A breast epithelial cells, parental and CDH1-null. Reagents: siRNA against human genes. Measurement: 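Cell viability by CellTiter-Glo ATP luminescence, each line scaled to the mean of mock wells across plates, then CDH1-null over parental ratio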. Scale: CDH1-null / parental viability ratio: higher = CDH1-null cells survive relatively better than parental; CDH1-null viability vs mock: higher = more viable CDH1-null cells; parental viability vs mock: higher = more viable parental cells.
The deposit covers about 18,000 reagents; this is an unselected part. Reagents against one gene are numbered here. Not stated in the record: the amount of reagent, the time to read-out.

The opening 5 entries, to show the layout:
no.	gene symbol	reagent	CDH1-null / parental viability ratio	CDH1-null viability vs mock (fraction of mock)	parental viability vs mock (fraction of mock)
1	VASP (vasodilator stimulated phosphoprotein)	1	1.1	1.02	0.93
2	STON2 (stonin 2)	1	0.91	0.4	0.44
3	SAFB2 (scaffold attachment factor B2)	1	1.25	0.84	0.67
4	GALNT7 (polypeptide N-acetylgalactosaminyltransferase 7)	1	1.1	1.03	0.94
5	SNF8 (SNF8 subunit of ESCRT-II)	1	0.81	0.71	0.88

Results, from the first entry:
no.	gene symbol	reagent	CDH1-null / parental viability ratio	CDH1-null viability vs mock (fraction of mock)	parental viability vs mock (fraction of mock)
1	VASP (vasodilator stimulated phosphoprotein)	1	1.1	1.02	0.93
2	STON2 (stonin 2)	1	0.91	0.4	0.44
3	SAFB2 (scaffold attachment factor B2)	1	1.25	0.84	0.67
4	GALNT7 (polypeptide N-acetylgalactosaminyltransferase 7)	1	1.1	1.03	0.94
5	SNF8 (SNF8 subunit of ESCRT-II)	1	0.81	0.71	0.88
6	ATP10D (ATPase phospholipid transporting 10D (putative))	1	0.77	0.55	0.71
7	HNRNPF (heterogeneous nuclear ribonucleoprotein F)	1	0.82	0.8	0.97
8	NLRP13 (NLR family pyrin domain containing 13)	1	1.04	1.08	1.04
9	SLFN12 (schlafen family member 12)	1	0.89	0.74	0.83
10	TWIST2 (twist family bHLH transcription factor 2)	1	1.04	0.93	0.89
11	PRR15 (proline rich 15)	1	1	0.46	0.46
12	HNRNPAB (heterogeneous nuclear ribonucleoprotein A/B)	1	0.86	0.6	0.7
13	CCR2 (C-C motif chemokine receptor 2)	1	0.78	0.92	1.18
14	UBQLN4 (ubiquilin 4)	1	1.27	0.7	0.55
15	FIGNL1 (fidgetin like 1)	1	1.04	0.77	0.74
16	KMO (kynurenine 3-monooxygenase)	1	1.11	1.11	1
17	GPR21 (G protein-coupled receptor 21)	1	1.44	1.04	0.72
18	NCOA4 (nuclear receptor coactivator 4)	1	0.8	0.57	0.71
19	USP10 (ubiquitin specific peptidase 10)	1	1.05	0.83	0.79
20	QSER1 (glutamine and serine rich 1)	1	1.02	0.95	0.93
21	OBSCN	1	1.01	0.93	0.92
22	OBSCN	2	1.06	0.76	0.72
23	FAM234A (family with sequence similarity 234 member A)	1	1.16	0.58	0.5
24	MTFR1L (mitochondrial fission regulator 1 like)	1	1.21	0.75	0.62
25	CEP192 (centrosomal protein 192)	1	1.08	0.82	0.76
26	MAPK8 (mitogen-activated protein kinase 8)	1	1.18	0.9	0.76
27	PHLDA3 (pleckstrin homology like domain family A member 3)	1	0.92	0.9	0.98
28	NT5C3A (5'-nucleotidase, cytosolic IIIA)	1	1.44	1.04	0.72
29	ZNF682 (zinc finger protein 682)	1	0.94	0.75	0.8
30	NT5DC2 (5'-nucleotidase domain containing 2)	1	0.92	0.76	0.83
31	WDPCP (WD repeat containing planar cell polarity effector)	1	0.92	0.84	0.91
32	SZT2 (SZT2 subunit of KICSTOR complex)	1	0.91	0.78	0.86
33	SZT2 (SZT2 subunit of KICSTOR complex)	2	1.06	0.74	0.7
34	SMIM21 (small integral membrane protein 21)	1	0.91	0.74	0.81
35	PJVK (pejvakin)	1	1.11	0.99	0.89
36	ATP5MC1 (ATP synthase membrane subunit c locus 1)	1	0.96	0.75	0.78
37	DENND11 (DENN domain containing 11)	1	0.76	0.57	0.75
38	NAIF1 (nuclear apoptosis inducing factor 1)	1	1.77	0.71	0.4
39	PSMB7 (proteasome 20S subunit beta 7)	1	1.44	0.52	0.36
40	PAK5 (p21 (RAC1) activated kinase 5)	1	1.1	0.97	0.88
41	HS3ST5 (heparan sulfate-glucosamine 3-sulfotransferase 5)	1	0.76	0.7	0.92
42	ZFPM2 (zinc finger protein, FOG family member 2)	1	1.04	0.88	0.85
43	NSRP1 (nuclear speckle splicing regulatory protein 1)	1	1.29	0.58	0.45
44	CDK11B (cyclin dependent kinase 11B)	1	1.09	0.74	0.68
45	SH3BP5 (SH3 domain binding protein 5)	1	1.08	0.7	0.65
46	CCNI (cyclin I)	1	0.88	0.89	1.01
47	MNMIP1 (manchette microtubule inner protein 1)	1	0.9	1.02	1.13
48	ZNF592 (zinc finger protein 592)	1	0.99	0.94	0.95
49	SLC7A1	1	1.28	1.13	0.88
50	CCL26 (C-C motif chemokine ligand 26)	1	1.02	0.56	0.55
51	GALNT11 (polypeptide N-acetylgalactosaminyltransferase 11)	1	0.63	0.55	0.87
52	HDDC3 (HD domain containing 3)	1	0.94	0.74	0.79
53	RABL2B (RAB, member of RAS oncogene family like 2B)	1	0.97	0.57	0.59
54	RPN2 (ribophorin II)	1	0.86	0.66	0.77
55	UNG (uracil DNA glycosylase)	1	1.3	0.69	0.53
56	DDIT4 (DNA damage inducible transcript 4)	1	1.09	1.02	0.94
57	COL18A1-AS1 (COL18A1 antisense RNA 1)	1	1.39	0.57	0.41
58	ZNF791 (zinc finger protein 791)	1	1.01	0.83	0.82
59	BMPR1A (bone morphogenetic protein receptor type 1A)	1	0.95	0.84	0.88
60	B3GNT9	1	1.02	0.96	0.94
61	OR1I1 (olfactory receptor family 1 subfamily I member 1)	1	0.84	0.43	0.51
62	FYB2 (FYN binding protein 2)	1	0.82	0.56	0.68
63	UQCC1 (ubiquinol-cytochrome c reductase complex assembly factor 1)	1	1.42	0.64	0.45
64	HAO2 (hydroxyacid oxidase 2)	1	1.04	0.83	0.8
65	COL17A1 (collagen type XVII alpha 1 chain)	1	0.74	0.7	0.94
66	DUSP3 (dual specificity phosphatase 3)	1	1.43	1	0.7
67	CIB3 (calcium and integrin binding family member 3)	1	1.3	0.92	0.71
68	AP5M1 (adaptor related protein complex 5 subunit mu 1)	1	1.03	0.68	0.66
69	ATP13A5 (ATPase 13A5)	1	1.1	0.66	0.6
70	TERT (telomerase reverse transcriptase)	1	0.96	0.9	0.94
71	GAGE4 (G antigen 4)	1	1	0.74	0.74
72	FCHSD2 (FCH and double SH3 domains 2)	1	0.81	0.71	0.88
73	TNS4 (tensin 4)	1	0.82	0.62	0.76
74	HDHD2 (haloacid dehalogenase like hydrolase domain containing 2)	1	1.06	0.84	0.79
75	GANC (glucosidase alpha, neutral C)	1	0.89	0.77	0.87
76	STON1 (stonin 1)	1	1.13	0.71	0.63
77	SPATC1 (spermatogenesis and centriole associated 1)	1	1.13	1.04	0.92
78	ST8SIA4 (ST8 alpha-N-acetyl-neuraminide alpha-2,8-sialyltransferase 4)	1	1.11	1.02	0.92
79	SULT2B1 (sulfotransferase family 2B member 1)	1	1.09	0.7	0.64
80	OR5D18 (olfactory receptor family 5 subfamily D member 18)	1	0.97	0.94	0.97
81	SELENBP1 (selenium binding protein 1)	1	1.37	0.82	0.6
82	LGMN (legumain)	1	1.2	0.89	0.74
83	TBC1D29P (TBC1 domain family member 29, pseudogene)	1	0.99	0.76	0.77
84	NFE2L2 (NFE2 like bZIP transcription factor 2)	1	1.14	0.98	0.86
85	CDHR3 (cadherin related family member 3)	1	0.9	0.74	0.82
86	FAM111A (FAM111 trypsin like peptidase A)	1	0.97	0.68	0.7
87	SMIM15 (small integral membrane protein 15)	1	1.21	1.05	0.87
